Results as given in PubChem BioAssay AID330 (DTP/NCI, 2004).
The list shows only some results of the screen, not a fair sample: it gathers tests that were run many times, whatever their T/C, doses with no T/C, and many T/C values between a quarter and a half above the control. Further doses and runs are listed elsewhere. T/C gives the treated animals as a percentage of the vehicle group. Some entries give survivors of the animals treated and no T/C: the source holds a T/C of zero for them, seemingly a mark for toxic or unscored doses. Some survivor counts are full or nearly so, which does not show that the dose was tolerated: the source hardly ever lists a survival T/C far under the control, and the zero likely stands for such cases as well. Survivors were counted at the toxicity check, usually on the fifth day, unless a day is given; later deaths do not show. Schedules are NCI's codes, read here as Q, the interval in days (D) or hours (H), X, the number of doses. Some structures stand for samples that the source files as different forms (salt, stereo form or complex); doses refer to the form tested. Some doses were run more than once; the results are listed from low to high. For survival time, this PubChem deposit counts one and a half times the control or more as active, and values a quarter to a half above the control carry no call in these data; other NCI protocols may use other cut-offs. Some T/C values are followed by the survivors on the day toxicity was checked, most often the fifth; without a count, all were alive then.

System: P388 leukemia ip, CD2F1 mice, survival T/C
Experiment: NCI In Vivo Anticancer Drug Screen. Data for tumor model P388 Leukemia (intraperitoneal) in CD2F1 (CDF1) mice
Details: T/C endpoint: median survival time, higher T/C = longer survival
[1] = dose: 120.0 mg/kg/injection, schedule: Q01DX005 (ip), vehicle: saline with Tween-80
[2] = dose: 240.0 mg/kg/injection, schedule: Q01DX005 (ip), vehicle: saline with Tween-80
[3] = dose: 50.0 mg/kg/injection, schedule: Q01DX005 (ip), vehicle: Klucel (hydroxypropylcellulose) (HPC)
[4] = dose: 100.0 mg/kg/injection, schedule: Q01DX005 (ip), vehicle: Klucel (hydroxypropylcellulose) (HPC)
[5] = dose: 200.0 mg/kg/injection, schedule: Q01DX005 (ip), vehicle: Klucel (hydroxypropylcellulose) (HPC)
[6] = dose: 120.0 mg/kg/injection, schedule: Q01DX005 (ip), vehicle: Klucel (hydroxypropylcellulose) (HPC)
[7] = dose: 240.0 mg/kg/injection, schedule: Q01DX005 (ip), vehicle: Klucel (hydroxypropylcellulose) (HPC)
[8] = dose: 100.0 mg/kg/injection, schedule: Q01DX009 (ip), vehicle: saline with Tween-80
[9] = dose: 200.0 mg/kg/injection, schedule: Q01DX009 (ip), vehicle: saline with Tween-80
[10] = dose: 50.0 mg/kg/injection, schedule: Q01DX009 (ip), vehicle: saline with Tween-80
[11] = dose: 50.0 mg/kg/injection, schedule: Q01DX009 (ip), vehicle: saline
[12] = dose: 200.0 mg/kg/injection, schedule: Q01DX005 (ip), vehicle: saline with Tween-80
[13] = dose: 200.0 mg/kg/injection, schedule: Q01DX005 (ip), vehicle: saline

Compound: CC1=Nc2nc(=NCCCN(C)C)nc3cccc(n23)N1
- survivor count [1]: 3 of 6
- survivor count [2]: 0 of 6

Compound: CN1CCCOC(c2ccccc2)c2ccsc2CC1 (centres undefined)
- survivor count [1]: 2 of 6
- survivor count [2]: 0 of 6

Compound: CON=C1C(C)(C)C(=NOC)C1(C)C
- survivor count [3]: 1 of 6
- survivor count [4]: 3 of 6
- survivor count [5]: 0 of 6

Compound: COc1ccc(-n2c(C)c(COC(=O)NC(C)C)c(COC(=O)NC(C)C)c2C)cc1
- survivor count [6]: 6 of 6
- survivor count [7]: 3 of 6

Compound: O=C(C/C(=N\C(=S)Nc1cc(C(F)(F)F)ccc1Cl)NO)N1CCCC1
- T/C [8]: 134 % of control
- T/C [9]: 128 % of control

Compound: COc1cccc(-n2cc[n+](C)c2/C=N/O)c1
- survivor count [8]: 0 of 6

Compound: COP(=O)(OC)OC=C(Cl)Cl
- survivor count [10]: 2 of 6
- survivor count [8]: 0 of 6
- survivor count [9]: 0 of 6

Compound: CCCOc1ccc2c(NCCCCCCCCNc3c4ccccc4nc4cc(OCCC)ccc34)c3ccccc3nc2c1
- T/C (dose: 1.25 mg/kg/injection, schedule: Q01DX009 (ip), vehicle: other): 127 % of control
- T/C (dose: 2.5 mg/kg/injection, schedule: Q01DX009 (ip), vehicle: lactic acid): 142 % of control
- T/C (dose: 2.5 mg/kg/injection, schedule: Q01DX009 (ip), vehicle: other): 130 % of control
- T/C (dose: 3.75 mg/kg/injection, schedule: Q01DX009 (ip), vehicle: other): 125 % of control
- T/C (dose: 5.0 mg/kg/injection, schedule: Q01DX009 (ip), vehicle: other): 139 % of control
- survivor count (dose: 10.0 mg/kg/injection, schedule: Q01DX009 (ip), vehicle: other): 0 of 4
- survivor count (dose: 15.0 mg/kg/injection, schedule: Q01DX009 (ip), vehicle: other): 0 of 4
- survivor count (dose: 20.0 mg/kg/injection, schedule: Q01DX009 (ip), vehicle: lactic acid): 0 of 6
- survivor count (dose: 20.0 mg/kg/injection, schedule: Q01DX009 (ip), vehicle: other): 0 of 4

Compound: CCN(CC)Sc1cccc([N+](=O)[O-])c1
- survivor count (dose: 100.0 mg/kg/injection, schedule: Q01DX009 (ip), vehicle: Klucel (hydroxypropylcellulose) (HPC)): 1 of 6
- survivor count (dose: 200.0 mg/kg/injection, schedule: Q01DX009 (ip), vehicle: Klucel (hydroxypropylcellulose) (HPC)): 0 of 6

Compound: CCc1nc(N)nc(N)c1-c1ccc(Cl)c(N=[N+]=[N-])c1
- T/C (dose: 50.0 mg/kg/injection, schedule: Q01DX009 (ip), vehicle: distilled water + Tween-80): 132 % of control
- T/C (dose: 100.0 mg/kg/injection, schedule: Q01DX009 (ip), vehicle: distilled water + Tween-80): 125 % of control
- survivor count [6]: 4 of 6
- survivor count [7]: 0 of 6

Compound: CS(=O)(=O)Nc1cc(C(O)CNC2CC2)ccc1O (centres undefined)
- survivor count (dose: 3.0 mg/kg/injection, schedule: Q01DX001 (ip), vehicle: saline): 1 of 6
- survivor count (dose: 6.0 mg/kg/injection, schedule: Q01DX001 (ip), vehicle: saline): 0 of 6
- survivor count (dose: 12.5 mg/kg/injection, schedule: Q01DX001 (ip), vehicle: saline): 0 of 6
- survivor count (dose: 25.0 mg/kg/injection, schedule: Q01DX001 (ip), vehicle: saline): 0 of 6
- survivor count (dose: 50.0 mg/kg/injection, schedule: Q01DX001 (ip), vehicle: saline): 0 of 6

Compound: CC(=O)Nc1nc(NC(C)=O)c(N=O)c(NC(C)=O)n1
- T/C (dose: 100.0 mg/kg/injection, schedule: Q01DX009 (ip), vehicle: saline): 129 % of control
- survivor count [9]: 0 of 6
- survivor count (dose: 200.0 mg/kg/injection, schedule: Q01DX009 (ip), vehicle: saline): 4 of 6

Compound: CCn1c2ccccc2c2cc(N=Nc3cc[n+]([O-])c4c(O)cccc34)ccc21
- survivor count [8]: 6 of 6
- survivor count [9]: 6 of 6

Compound: CC1(C#N)N=C(c2ccccc2)c2ccccc2N1C(=O)Oc1ccccc1 (centres undefined)
- survivor count [2]: 6 of 6

Compound: Clc1ccnc2ccc3ccccc3c12
- survivor count [11]: 1 of 6

Compound: CCCCOc1ccc2nc3cc(Cl)ccc3c(Cl)c2n1
- survivor count (dose: 50.0 mg/kg/injection, schedule: Q01DX005 (ip), vehicle: saline with Tween-80): 6 of 6
- survivor count (dose: 100.0 mg/kg/injection, schedule: Q01DX005 (ip), vehicle: saline with Tween-80): 6 of 6
- survivor count [12]: 6 of 6

Compound: S=C(/N=N/c1[nH]c2ccccc2c1NNC(=S)NC12CC3CC(CC(C3)C1)C2)NC12CC3CC(CC(C3)C1)C2
- survivor count (dose: 15.0 mg/kg/injection, schedule: Q01DX005 (ip), vehicle: saline with Tween-80): 6 of 6
- survivor count (dose: 60.0 mg/kg/injection, schedule: Q01DX005 (ip), vehicle: saline with Tween-80): 6 of 6

Compound: CCCCCCCCCCCCCCCc1cc(O)c(CC=C(C)C)c(=O)o1 (tested in a mixture with another compound)
- survivor count (dose: 660.0 mg/kg/injection, schedule: Q01DX005 (ip), vehicle: Klucel (hydroxypropylcellulose) (HPC)): 2 of 6

Compound: Nc1ncc2c(=O)c3c(ccc4ccccc43)oc2n1
- survivor count [10]: 6 of 6
- survivor count [9]: 6 of 6

Compound: CC1(C)OC1CS(=O)c1ccccc1 (centres undefined)
- T/C (dose: 150.0 mg/kg/injection, schedule: Q01DX009 (ip), vehicle: saline with Tween-80): 142 % of control

Compound: C/C(=N\NC(=S)NC12CC3CC(CC(C3)C1)C2)c1ccccn1
- survivor count (dose: 400.0 mg/kg/injection, schedule: Q04DX003 (ip), vehicle: saline with Tween-80): 4 of 6

Compound: O=C1CC2c3ccccc3CCN2C2=C1CCC2 (centres undefined)
- survivor count [12]: 0 of 6

Compound: CC(=O)NS(=O)(=O)c1ccc(N=Nc2c(C)nn(C(=O)c3cccnc3)c2-c2ccccc2)cc1
- survivor count [12]: 6 of 6

Compound: CCC1=CC2CN(CCc3c([nH]c4ccccc34)C(C(=O)OC)(c3cc4c(cc3OC)N(C)C3C(O)(C(=O)OC)C(OC(C)=O)C5(CC)CCCN6CCC43C65)C2)C1 (centres undefined)
- T/C (dose: 8.0 mg/kg/injection, schedule: Q01DX009 (ip), vehicle: water): 125 % of control
- T/C (dose: 16.0 mg/kg/injection, schedule: Q01DX009 (ip), vehicle: water): 130 and 148 % of control
- T/C (dose: 64.0 mg/kg/injection, schedule: Q01DX001 (ip), vehicle: water): 127 and 132 % of control [5 of 6 alive]
- survivor count (dose: 128.0 mg/kg/injection, schedule: Q01DX001 (ip), vehicle: water): 0 of 6 and 3 of 6
- survivor count (dose: 256.0 mg/kg/injection, schedule: Q01DX001 (ip), vehicle: water): 0 of 6

Compound: COc1ccc(/C=N/Nc2cc(C)nc3cc4c(cc23)OCO4)c2ccccc12
- survivor count (dose: 25.0 mg/kg/injection, schedule: Q01DX005 (ip), vehicle: Klucel (hydroxypropylcellulose) (HPC)): 1 of 6
- survivor count [3]: 0 of 6
- survivor count [4]: 0 of 6
- survivor count [5]: 0 of 6

Compound: O=C(/C=C/c1ccc([N+](=O)[O-])cc1)NN=C(c1ccccc1)c1ccccc1
- T/C [9]: 126 % of control

Compound: CC1CCN(C)CC1
- survivor count [13]: 0 of 6

Compound: CN=C(c1ccc(NC(=O)c2cc(C(=O)Nc3ccc(C(=NC)N(C)C)cc3)cc([N+](=O)[O-])c2)cc1)N(C)C
- survivor count (dose: 25.0 mg/kg/injection, schedule: Q01DX005 (ip), vehicle: saline): 0 of 6
- survivor count (dose: 50.0 mg/kg/injection, schedule: Q01DX005 (ip), vehicle: saline): 0 of 6
- survivor count (dose: 100.0 mg/kg/injection, schedule: Q01DX005 (ip), vehicle: saline): 0 of 6
- survivor count [13]: 0 of 6

Compound: O=[N+]([O-])c1ccc(/C(=C\c2ccc(-c3ccccc3)o2)S(=O)(=O)c2ccccc2)o1
- survivor count [11]: 5 of 6
- survivor count (dose: 50.0 mg/kg/injection, schedule: Q01DX009 (ip), vehicle: suspension in saline): 5 of 6
- survivor count (dose: 100.0 mg/kg/injection, schedule: Q01DX009 (ip), vehicle: suspension in saline): 5 of 6
- survivor count (dose: 200.0 mg/kg/injection, schedule: Q01DX009 (ip), vehicle: suspension in saline): 6 of 6

Compound: FC(F)(F)c1ccc(-c2nn[nH]n2)cc1
- survivor count [7]: 0 of 6
